These are yes or no findings as the source states them, for the method shown. Some entries that bind do so weakly or less than the wild type.

The chains behind the UniProt entries cited, without tags or fusion partners. Residues count along the entry.
UniProt P01241, residues 27-217: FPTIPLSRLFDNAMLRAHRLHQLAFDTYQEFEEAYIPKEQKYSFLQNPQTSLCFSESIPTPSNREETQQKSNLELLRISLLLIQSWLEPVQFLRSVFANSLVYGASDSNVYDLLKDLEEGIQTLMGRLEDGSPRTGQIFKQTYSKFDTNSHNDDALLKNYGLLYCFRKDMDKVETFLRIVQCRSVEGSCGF

The assay concerns the target T1, Mouse growth hormone receptor (mGHR) expressed on 3T3-F442A cells (mouse (endogenous in 3T3-F442A)) (UniProt P16882).
T1 sequence: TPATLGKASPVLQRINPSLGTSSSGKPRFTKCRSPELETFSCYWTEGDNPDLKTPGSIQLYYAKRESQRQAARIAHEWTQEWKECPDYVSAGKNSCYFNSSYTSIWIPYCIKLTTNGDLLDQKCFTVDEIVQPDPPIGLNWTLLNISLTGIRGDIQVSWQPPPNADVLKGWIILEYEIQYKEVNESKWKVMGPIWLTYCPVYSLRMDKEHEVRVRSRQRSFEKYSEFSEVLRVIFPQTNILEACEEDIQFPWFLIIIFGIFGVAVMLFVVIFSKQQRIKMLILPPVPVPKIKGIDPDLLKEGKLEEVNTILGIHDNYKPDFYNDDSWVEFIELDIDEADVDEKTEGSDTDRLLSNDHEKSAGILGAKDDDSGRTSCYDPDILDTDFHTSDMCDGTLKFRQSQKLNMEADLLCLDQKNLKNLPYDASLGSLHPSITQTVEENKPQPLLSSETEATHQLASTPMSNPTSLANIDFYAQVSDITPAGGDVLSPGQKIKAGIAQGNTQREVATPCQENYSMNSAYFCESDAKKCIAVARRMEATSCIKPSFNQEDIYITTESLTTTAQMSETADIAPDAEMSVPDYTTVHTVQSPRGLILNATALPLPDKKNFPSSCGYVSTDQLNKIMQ
Put plainly: flow cytometry on cells; competitive receptor binding on 3T3-F442A cells (1 x 10^6 cells/tube) in serum-free medium with 1 mg/mL BSA; FITC-GH (15 nM) with increasing concentrations of unlabeled GH, Mab263 or control antibody, 1 h in the dark at 4 °C; only the binder purified.

In the case of “Human growth hormone (hGH), unlabeled (from UniProt P01241 27-217) (ligand)”, the binding result is “binds”.

Take “Human growth hormone conjugated with fluorescein isothiocyanate (FITC-hGH) (from UniProt P01241 27-217) (ligand)”: the binding entry is recorded as “binds”.

The values are drawn from PMC4264182.
